Assay results reported in patent publication US4340539A, “Derivatives of 6-bromo penicillanic acid” (priority 1980, dated 1982).
Read-outs that look alike come from different tables or passages of the source.

Assays:
in vivo = test: in vivo; design: species or system mice; conditions: mouse, blood, po, read-out: Blood level; for concentration at 0.5 h: 30 min; for concentration at 1 h: 60 min; for concentration at 2 h: 120 min
From the text: Compounds prepared in 5% Propylene Glycol & TweenCMC-H2 O.
Values in parentheses are 95% confidence limits.
Assay Organism: E. coli A9675 (pH = 6.6, 0.1% inoculum)

[1] = Blood levels after oral administration to mice (Table 4); assay type: in vivo; conditions: mouse, 100 mg/kg, assay organism E. coli A-9675, read-out: Blood level
[2] = 25 mg/kg, Test 1, oral 25 mg/kg
[3] = 25 mg/kg, Test 3, oral 25 mg/kg
[4] = 50 mg/kg, Test 1, oral 50 mg/kg
[5] = 50 mg/kg, Test 3, oral 50 mg/kg
[6] = 100 mg/kg, Test 1, oral 100 mg/kg
[7] = 100 mg/kg, Test 3, oral 100 mg/kg

With `CC1(CCl)C(C(=O)O)N2C(=O)CC2S1(=O)=O` (stereo not drawn) [BL-P2013, Potassium 2β-Chloromethyl-2α-methylpenam-3α-carboxylate Sulfone] the concentration at […] (in vivo; 25 mg/kg, Test 1, oral 25 mg/kg, 15 min) was 1300 ng/mL, the concentration at 0.5 h (in vivo; [2]) was 1400 ng/mL and the concentration at 1 h (in vivo; [2]) was 1000 ng/mL. The concentration at […] (in vivo; 25 mg/kg, Test 1, oral 25 mg/kg, 90 min) was under 600 ng/mL, the concentration at 2 h (in vivo; [2]) was under 600 ng/mL and the concentration at […] (in vivo; 25 mg/kg, Test 1, oral 25 mg/kg, 150 min) was under 600 ng/mL. For the same compound, the concentration at […] (in vivo; 25 mg/kg, Test 3, oral 25 mg/kg, 15 min) was 1400 ng/mL, the concentration at 0.5 h (in vivo; [3]) was 2000 ng/mL and the concentration at 1 h (in vivo; [3]) was 1400 ng/mL. The concentration at […] (in vivo; 25 mg/kg, Test 3, oral 25 mg/kg, 90 min) was 1200 ng/mL, the concentration at 2 h (in vivo; [3]) was under 1200 ng/mL and the concentration at […] (in vivo; 25 mg/kg, Test 3, oral 25 mg/kg, 150 min) was under 1200 ng/mL. For the same compound, the concentration at […] (in vivo; 50 mg/kg, Test 1, oral 50 mg/kg, 15 min) was 2200 ng/mL, the concentration at 0.5 h (in vivo; [4]) was 2600 ng/mL and the concentration at 1 h (in vivo; [4]) was 1900 ng/mL. It also gave a concentration at […] (in vivo; 50 mg/kg, Test 1, oral 50 mg/kg, 90 min) of 1500 ng/mL, a concentration at 2 h (in vivo; [4]) of 1100 ng/mL and a concentration at […] (in vivo; 50 mg/kg, Test 1, oral 50 mg/kg, 150 min) of 800 ng/mL. It also gave a concentration at […] (in vivo; 50 mg/kg, Test 3, oral 50 mg/kg, 15 min) of 4600 ng/mL, a concentration at 0.5 h (in vivo; [5]) of 5500 ng/mL and a concentration at 1 h (in vivo; [5]) of 3600 ng/mL. For the same compound, the concentration at […] (in vivo; 50 mg/kg, Test 3, oral 50 mg/kg, 90 min) was 3100 ng/mL, the concentration at 2 h (in vivo; [5]) was 2000 ng/mL and the concentration at […] (in vivo; 50 mg/kg, Test 3, oral 50 mg/kg, 150 min) was 1100 ng/mL. For the same compound, the concentration at […] (in vivo; 100 mg/kg, Test 1, oral 100 mg/kg, 15 min) was 3400 ng/mL, the concentration at 0.5 h (in vivo; [6]) was 4500 ng/mL and the concentration at 1 h (in vivo; [6]) was 3900 ng/mL. The concentration at […] (in vivo; 100 mg/kg, Test 1, oral 100 mg/kg, 90 min) was 3600 ng/mL, the concentration at 2 h (in vivo; [6]) was 2700 ng/mL and the concentration at […] (in vivo; 100 mg/kg, Test 1, oral 100 mg/kg, 150 min) was 2100 ng/mL. The concentration at […] (in vivo; 100 mg/kg, Test 3, oral 100 mg/kg, 15 min) was 6800 ng/mL, the concentration at 0.5 h (in vivo; [7]) was 11500 ng/mL and the concentration at 1 h (in vivo; [7]) was 6400 ng/mL. The concentration at […] (in vivo; 100 mg/kg, Test 3, oral 100 mg/kg, 90 min) was 4200 ng/mL, the concentration at 2 h (in vivo; [7]) was 3300 ng/mL and the concentration at […] (in vivo; 100 mg/kg, Test 3, oral 100 mg/kg, 150 min) was 2500 ng/mL. For the same compound, the concentration at 1 h ([1]; 60 min) was 3900 ng/mL and the concentration at […] ([1]; 150 min) was 800 ng/mL.
